Data as given in PubChem BioAssay AID504793 (Drosophila RNAi Screening Center, 2011)
The screen tested about 23,000 reagents; this is an unselected part of those that have a named target and a result. Over the whole deposit, 62 (0.27%) got an active call. 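Calls come from follow-up tests whose scores are not deposited, so confirmed genes may have low counts here; counts are not normalised per plate.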 Raw values are not corrected between plates. Names joined by + are all predicted targets of the reagent. Reagent sequences are not shown.

Purpose: 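Whole-genome screen for parts of the DNA damage checkpoint at G2/M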 (primary screen)
Cell system: Drosophila S2R+ cells
Reagent: long dsRNA against Drosophila genes, about 0.25 µg dsRNA per well
Duration: 4 days of dsRNA, then 4 hours of drug before read-out
Conditions: doxorubicin 0.5 µM for 4 hours to cause double-strand breaks, in cells also given a low, harmless dose of dsRNA against nbs to sensitise the assay
Measured: 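Per-well count of mitotic cells stained for phospho-histone H3 after doxorubicin exposure, used as mitotic index; counts are raw and not normalised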
Direction: mitotic cells: higher = more cells in mitosis, weaker G2 arrest
Active means: 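Genes are called active only when high mitotic counts were reproduced with independent dsRNAs and mitosis was checked for delay without damage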
Calls: active = confirmed in follow-up tests; inactive = not confirmed

After knock-down of CG34386 [DRSC06468], the record shows mitotic cells, replicate 1 = 9; inactive. Against CG34386 [DRSC23234], the values are mitotic cells, replicate 1 = 8; inactive. For CG34386 [DRSC29597], the values are mitotic cells, replicate 1 = 5; inactive. Against betaTub65B [DRSC11393] the deposit lists mitotic cells, replicate 1 = 7; inactive. Silencing of CG15459 [DRSC20530] came out at: mitotic cells, replicate 1 = 14; inactive. For CG15459 [DRSC21383] the deposit lists mitotic cells, replicate 1 = 8; inactive.

CG15459 [DRSC27861] gave mitotic cells, replicate 1 = 9; inactive. Depletion of CG13326 [DRSC06363] gave: mitotic cells, replicate 1 = 5; inactive. For RfC4 [DRSC08691] the deposit lists mitotic cells, replicate 1 = 3; inactive. For RfC4 [DRSC29522] the deposit lists mitotic cells, replicate 1 = 4; inactive. Depletion of mat [DRSC08376] gave: mitotic cells, replicate 1 = 6; inactive. Depletion of mat [DRSC22841] resulted in: mitotic cells, replicate 1 = 20; inactive.

For mat [DRSC27210], the entry reads mitotic cells, replicate 1 = 7; inactive. Knock-down of CG42726 + CG42727 [DRSC14485] came out at: mitotic cells, replicate 1 = 5; inactive. Silencing of CG42726 + CG42727 [DRSC27155] came out at: mitotic cells, replicate 1 = 3; inactive. For CG15642 [DRSC19678], the values are mitotic cells, replicate 1 = 7; inactive. Depletion of CG15642 [DRSC29032] came out at: mitotic cells, replicate 1 = 6; inactive. Nup44A [DRSC07248] scored mitotic cells, replicate 1 = 8; inactive.

Knock-down of Nup44A [DRSC28141] resulted in: mitotic cells, replicate 1 = 3; inactive. Silencing of beat-IIIc [DRSC02438] gave: mitotic cells, replicate 1 = 3; inactive. For beat-IIIc [DRSC02949], the entry reads mitotic cells, replicate 1 = 5; inactive. For Cfp1 [DRSC18128] the deposit lists mitotic cells, replicate 1 = 12; inactive. Depletion of Pstk + Tim9b [DRSC19504] gave: mitotic cells, replicate 1 = 8; inactive. With knock-down of Pstk + Tim9b [DRSC20292], the record shows mitotic cells, replicate 1 = 5; inactive.

With knock-down of Pstk + Tim9b [DRSC28671], the record shows mitotic cells, replicate 1 = 4; inactive. CG7295 [DRSC00699] showed mitotic cells, replicate 1 = 4; inactive. Against mRpL18 [DRSC06142], the entry reads mitotic cells, replicate 1 = 8; inactive. Silencing of CG31533 [DRSC13018] gave: mitotic cells, replicate 1 = 5; inactive. onecut [DRSC17175] scored mitotic cells, replicate 1 = 8; inactive. Depletion of onecut [DRSC26072] came out at: mitotic cells, replicate 1 = 5; inactive.

Against CCHa1-R [DRSC06456], the values are mitotic cells, replicate 1 = 2; inactive. After knock-down of CCHa1-R [DRSC06715], the screen gave mitotic cells, replicate 1 = 3; inactive. CG13699 [DRSC10048] showed mitotic cells, replicate 1 = 4; inactive. CG13699 [DRSC26349] scored mitotic cells, replicate 1 = 8; inactive.

Taken from above:
For “mitotic cells, replicate 1”, betaTub65B [DRSC11393] is entered as 7
onecut [DRSC26072], outcome: inactive
For “mitotic cells, replicate 1”, CG42726 + CG42727 [DRSC14485] reads 5
